Primary screen of a compound library

Chains of the proteins cited; added tags and fusions are not shown. Residues count along the entry.
UniProt Q4DA54, 1-478: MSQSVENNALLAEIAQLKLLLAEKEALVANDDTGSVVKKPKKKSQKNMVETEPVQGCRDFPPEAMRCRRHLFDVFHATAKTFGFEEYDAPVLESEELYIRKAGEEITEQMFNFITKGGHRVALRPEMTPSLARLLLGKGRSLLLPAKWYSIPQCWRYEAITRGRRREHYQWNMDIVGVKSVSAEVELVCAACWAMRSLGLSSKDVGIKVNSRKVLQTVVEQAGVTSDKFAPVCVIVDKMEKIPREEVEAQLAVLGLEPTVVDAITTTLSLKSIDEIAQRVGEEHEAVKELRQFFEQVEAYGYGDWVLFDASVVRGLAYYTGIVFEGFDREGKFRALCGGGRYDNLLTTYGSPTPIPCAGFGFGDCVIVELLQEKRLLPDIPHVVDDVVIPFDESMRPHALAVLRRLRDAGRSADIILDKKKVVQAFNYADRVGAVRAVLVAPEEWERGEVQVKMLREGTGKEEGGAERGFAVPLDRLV
UniProt P9WNZ1, whole entry: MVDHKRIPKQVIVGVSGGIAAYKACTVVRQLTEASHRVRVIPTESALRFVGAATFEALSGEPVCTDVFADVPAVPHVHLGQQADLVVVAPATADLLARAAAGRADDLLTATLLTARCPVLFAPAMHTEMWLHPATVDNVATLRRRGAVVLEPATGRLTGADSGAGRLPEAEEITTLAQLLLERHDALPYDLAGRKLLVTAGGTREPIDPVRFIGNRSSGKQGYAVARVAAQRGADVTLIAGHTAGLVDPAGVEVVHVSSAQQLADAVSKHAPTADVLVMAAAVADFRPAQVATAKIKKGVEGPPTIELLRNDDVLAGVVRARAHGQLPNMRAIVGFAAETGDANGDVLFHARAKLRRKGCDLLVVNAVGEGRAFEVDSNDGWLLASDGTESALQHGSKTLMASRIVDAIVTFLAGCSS
UniProt A4I591, 1-473: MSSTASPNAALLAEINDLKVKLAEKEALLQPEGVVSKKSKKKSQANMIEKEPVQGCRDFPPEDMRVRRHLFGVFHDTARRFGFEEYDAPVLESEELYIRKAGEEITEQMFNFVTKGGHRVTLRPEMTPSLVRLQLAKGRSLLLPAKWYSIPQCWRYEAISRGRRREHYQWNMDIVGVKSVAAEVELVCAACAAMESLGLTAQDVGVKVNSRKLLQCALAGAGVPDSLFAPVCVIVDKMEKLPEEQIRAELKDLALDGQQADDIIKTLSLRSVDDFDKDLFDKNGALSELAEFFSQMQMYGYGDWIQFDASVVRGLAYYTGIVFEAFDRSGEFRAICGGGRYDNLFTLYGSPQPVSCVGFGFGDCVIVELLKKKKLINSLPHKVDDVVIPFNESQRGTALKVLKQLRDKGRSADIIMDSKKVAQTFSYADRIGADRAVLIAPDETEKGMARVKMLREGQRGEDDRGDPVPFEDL

Measurements from “University of Dundee, Small-Polar-MMV Screening Library” (2021), ChEMBL document CHEMBL3988442.

TcHisRS: 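Enzyme assay of histidyl-tRNA synthetase; the read-out is not stated. Target: Histidine-tRNA ligase, Trypanosoma cruzi CL Brener (UniProt Q4DA54). Tested at 30 µM. The record gives no direction; compounds that gave an IC50 in retests scored well above the rest, so higher reads as stronger inhibition. Size under these conditions: about 69,000 compounds, about 31 of them at 50% or above in at least one test.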
Leishmania in macrophages: 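Cell assay of Leishmania donovani living inside macrophages; the read-out is not stated. Compounds at 30 µM. Higher reads as stronger inhibition (inferred: compounds with an IC50 in retests scored well above the rest). Size under these conditions: about 69,000 compounds, about 1,000 of them at 50% or above in at least one test.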
Toxoplasma: 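Assay of Toxoplasma gondii numbers, read through their beta-galactosidase reporter with a colour substrate. Concentration: 10 µM. The record gives no direction; the compounds picked for IC50 retests had high values, so higher reads as fewer parasites. Size under these conditions: about 67,000 compounds, about 260 of them at 50% or above in at least one test.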
CoaBC: 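Coenzyme A biosynthesis protein CoaBC, Mycobacterium tuberculosis (UniProt P9WNZ1). Enzyme assay of CoaBC with a phosphate dye (Biomol Green) read at 650 nm. Tested at 30 µM. Direction is inferred from only a few compounds that gave an IC50; most scored high, so higher reads as stronger inhibition. Most strong results did not repeat in a second test. Size under these conditions: about 67,000 compounds, about 40 of them at 50% or above in at least one test.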
LiHisRS: 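Enzyme assay of histidyl-tRNA synthetase; the read-out is not stated. Target: Histidine-tRNA ligase, Leishmania infantum (UniProt A4I591). Concentration: 30 µM. Direction is inferred from retests: higher values go with stronger inhibition. The assay is labelled LdHisRS but filed under L. infantum. Size under these conditions: about 69,000 compounds, about 410 of them at 50% or above in at least one test.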

Each number is a percent effect as filed. How 0% and 100% were set is not recorded. Most values in the screen are low, and negative values occur. Compounds were drawn at random from those tested, without regard to their results. A dash means the value is not listed here; it may have been measured.

Result for Cc1nnc(N2CCCC3(CN(Cc4cnn(C)c4)CCO3)C2)o1 (centres undefined) was TcHisRS: 5.263%; CoaBC: 2.836%; LiHisRS: 17.74%.
Result for Cc1c[nH]c(C2CCCN(Cc3ccccc3C(=O)O)C2)n1 (centres undefined) was TcHisRS: 4.215%; CoaBC: 2.427%; LiHisRS: 8.571%.
Result for COc1cccc(CN2CCCCCC2c2cccs2)c1O (centres undefined) was TcHisRS: 3.261%; Leishmania in macrophages: 11.3%; Toxoplasma: -6.541%; CoaBC: 5.45%; LiHisRS: 20.39%.
Result for Cc1cccc(CN2CC3C[C@]3(NC(=O)c3ccco3)C2)n1 (some centres undefined) was TcHisRS: 4.908%; Leishmania in macrophages: 8.203%; Toxoplasma: 1.011%; LiHisRS: 5.128%.
Result for CC(NCc1cnc(C2CCC2)s1)c1ccc(-n2cncn2)cc1 (centres undefined) was TcHisRS: 3.704%; Leishmania in macrophages: -7.292%; Toxoplasma: -1.939%; CoaBC: 11%; LiHisRS: 11.76%.
Result for CC(NC(=O)NCCCN(C)S(C)(=O)=O)c1ccc(C#N)cc1 (centres undefined) was TcHisRS: 3.944%; Leishmania in macrophages: 13.16%; Toxoplasma: -21.99%; CoaBC: 2.926%; LiHisRS: 7.826%.
Result for CC(C)(O)C1CCN(C(=O)Nc2nc(-c3ccccc3)ns2)CC1 was TcHisRS: 0%; Leishmania in macrophages: 46.85%; Toxoplasma: 3.562%; CoaBC: 7.93%; LiHisRS: 16.98%.
Result for O=C(Cc1cccs1)N1CCn2cc(Cn3cccn3)nc2C1 was TcHisRS: 9.804%; CoaBC: 5.75%; LiHisRS: 14%.
Result for CCN(CC)CCN(CC(C)C)c1cc(C(F)(F)F)nc2ncnn12 was TcHisRS: 7.879%; Leishmania in macrophages: 19.47%; Toxoplasma: -7.633%; CoaBC: 3.163%; LiHisRS: 15.56%.
Result for COC1CCN(S(=O)(=O)N2CCCC2c2ccco2)CC1 (centres undefined) was TcHisRS: -2.353%; Leishmania in macrophages: 7.996%; Toxoplasma: 6.687%; CoaBC: -0.2457%; LiHisRS: 5.556%.
Result for Cc1ccc(CN2Cc3c(C(=O)N(C)C)nn(C)c3C2)s1 was TcHisRS: 3.306%; CoaBC: 4.946%; LiHisRS: 24.76%.
Result for CCN(CC)S(=O)(=O)c1cc2c3c(c1)c(C)cc(=O)n3CCC2 was TcHisRS: 10.61%; Leishmania in macrophages: 24.08%; Toxoplasma: 17.21%; CoaBC: -1.84%; LiHisRS: 14.49%.
Result for NC(=O)N1CC[C@@H]2O[C@@H](COCC(=O)N3CCCC3)CC[C@@H]21 was TcHisRS: 3.509%; CoaBC: -1.356%; LiHisRS: 0%.
Result for COc1ccnc(N2CCN(C(=O)CN3CCCC3=O)CC2)n1 was TcHisRS: 0.7576%; Leishmania in macrophages: 1.8%; Toxoplasma: -1.193%; CoaBC: 1.503%; LiHisRS: 25.76%.

Once more, the final 2:

compound	TcHisRS	Leishmania in macrophages	Toxoplasma	CoaBC	LiHisRS
NC(=O)N1CC[C@@H]2O[C@@H](COCC(=O)N3CCCC3)CC[C@@H]21	3.509	-	-	-1.356	0
COc1ccnc(N2CCN(C(=O)CN3CCCC3=O)CC2)n1	0.7576	1.8	-1.193	1.503	25.76